According to the supplement of paper PMC3334620:
In all, about 33,000 sequences were measured (“E-score (-0.5 to 0.5)”: median about -0.0014, highest 2% from about 0.25 on). Some of the results follow.

Biological target: T1, Cad1 (UniProt P24813)
T1 sequence: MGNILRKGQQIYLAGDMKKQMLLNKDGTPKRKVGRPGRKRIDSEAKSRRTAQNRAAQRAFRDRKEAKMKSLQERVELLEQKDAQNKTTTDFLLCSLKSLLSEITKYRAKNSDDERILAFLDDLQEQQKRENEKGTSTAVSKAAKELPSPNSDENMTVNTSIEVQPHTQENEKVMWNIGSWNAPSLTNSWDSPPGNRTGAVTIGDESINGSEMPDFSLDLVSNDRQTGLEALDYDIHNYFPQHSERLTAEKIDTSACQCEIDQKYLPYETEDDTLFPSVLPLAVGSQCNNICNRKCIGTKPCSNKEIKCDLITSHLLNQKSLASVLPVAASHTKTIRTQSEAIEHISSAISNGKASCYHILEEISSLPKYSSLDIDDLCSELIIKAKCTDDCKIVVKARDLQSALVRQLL
Assay: PBM E-score (8-mer binding enrichment) (E-score (-0.5 to 0.5)); higher = stronger / more preferred TF binding
Details: protein concentration: 100 nM; construct: GST-full length
How it was run: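 Each ungapped eight-base word and its reverse complement, pooled, received an E-score from the Universal PBM Analysis Suite. Underlying scans, normalised with masliner, recorded fluorescent anti-GST bound to GST-tagged yeast transcription factors. These were applied at about 100-200 nM to universal all-10-mer Agilent arrays double-stranded by primer extension.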

Sequence	PBM E-score
AACCTAAT	-0.0437
CCTCCTAG	-0.099
AGGACTGG	-0.18
GTGACATA	0.141
CTCCAGAG	-0.14
GGTCGCGA	0.273
AGGGTGCC	-0.285
ATAGTCAA	0.0661
ACCAAGGG	-0.0668
AATTCAAA	0.0368
GGGTGTAA	0.0367
CACAAAGG	-0.0708
AGCAGACA	-0.0116
ACGGACAT	0.177
CCCACTGA	-0.211
CCCAGTCC	-0.134
CCACAGCC	-0.135
GAATAGTA	0.144
CGTATCCA	-0.00514
GAAATGTC	-0.0459
AAGATTGA	-0.0377
AGTAAATC	0.146
GGATAAGA	0.0616
AACACGCC	0.0503
CACTCCCG	-0.139

Sequence	PBM E-score
CGGACAAG	0.219
CAAACCCA	0.114
GAGCGACC	-0.0877
CTAAGAAG	0.0716
ATCGTCAA	0.111
CACCTTAG	-0.05
ATCGTTGA	0.101
AGCATTAG	0.0185
AAACGGTA	0.0684
CTCTCTGC	-0.139
ACCCACGT	0.0506
GCTCTTTA	-0.0317
ACATTTAT	0.0966
ATGACGAG	-0.07
ATAAATGG	0.0507
CGGGATTA	0.18
ACGGACTC	-0.0126
GCAACCCC	-0.306
ACTGAGAA	-0.0562
TGTGTTAA	0.19
AGTGCGAC	-0.0305
CGAAAGAA	0.00206
AGCGAGGG	-0.271
ACCCGAGG	-0.0532
TACTGGGA	-0.0182

Sequence	PBM E-score
CTCGTTGC	0.11
CCATTATA	0.134
ATGGTTTA	-0.004
GCAGGAAC	0.0566
CTATGACA	0.17
CGCGTTCA	0.225
ATACATGC	-0.151
CATGCCGG	0.138
GTACAACA	0.116
GTACACAA	0.143
AACAGAAA	0.0872
ACGATGGC	0.0456
CGTCTTGA	0.153
AATTATCC	0.0534
ACATGGTA	0.00102
ATTCATGA	0.0482
CCACCGAA	-0.0212
ATCAAAGG	0.129
ATGAGACC	0.0675
ACGCCATC	0.00377
CAAGGGCA	-0.123
GCGGGCCA	-0.0258
ATGGCCAA	-0.046
GTGTAATA	0.194
TACATTAA	0.26

Sequence	PBM E-score
AGATTTAG	0.00099
CTCTTGTC	-0.0328
AATTTGCG	0.173
GCTGTACA	0.0743
GAACATTC	0.242
ATGTGGGA	-0.0628
CTTGACAA	0.102
GAGGCGAA	-0.00703
CGAGGGTC	-0.267
ACATTAGG	-0.0351
GGCCTGAC	0.00354
ACTGGAAA	0.0386
CACTGGAA	-0.0819
GACAAGCA	-0.021
GAGCGAGA	0.18
ATTCTTTC	-0.0222
AAGCTCGT	-0.0206
CGAGCCTC	-0.133
CCGCAGGA	-0.122
ACCGAAGC	-0.192
ATCGCGCG	0.282
ACGAAGGC	-0.219
ACGCCTCT	-0.183
CGCCGATA	0.137
GATCATCA	-0.0788

Sequence	PBM E-score
AGGCGACC	-0.22
GCCAGCCC	-0.0394
CCGTAAAC	0.0152
CCATGGAC	0.0444
ACAGAAGT	0.0159
ATCGATCA	0.142
TCACCTGA	-0.0665
ACTGTAGG	0.183
ACGAAGGA	-0.146
TCTTAAAA	0.14
GTTATGGA	0.141
AAAGGTCG	-0.19
CTTACGTC	-0.0353
TCATTAAA	0.265
TCCATGCA	0.165
CACTCCGA	-0.198
ACTCTACA	-0.118
AGCACGCT	-0.181
AATGCCCG	-0.189
AAGCACCA	-0.0991
CCTCTGCC	-0.303
ACCAATAG	-0.201
ATTTGCCG	0.0772
CTCTCCTA	-0.129
AACATACG	0.193

Sequence	PBM E-score
AGTGCTTG	-0.00083
CGAATGTC	0.0955
AACAGCGA	-0.141
ATGAACAA	0.188
GAGGCTAC	-0.142
AATAGGCA	-0.0277
CGAGTTTC	0.101
AGTGGTTG	0.0453
ACGGCGTG	0.16
GAAGGACC	-0.162
GAATAGCC	-0.199
ACCTTACC	0.0685
TAGCAACA	0.175
CCGCTAGC	-0.221
GGACGCGA	0.0385
AGCTGTAT	-0.0557
GCCGTACA	0.146
CCCGCATA	-0.0109
ATTTCTGC	0.235
CTTAAGCA	0.0927
AGAGAGGA	-0.277
CCGCCAAC	-0.0934
GTGAGAAA	0.0363
CCACGGGG	-0.351
GTTAGAAA	0.127

Sequence	PBM E-score
AAACAACC	-0.0909
AAAGAGTT	-0.181
AATTATTG	0.114
GAGGAGGA	-0.137
CCCTGCCG	-0.224
GTGTCGTA	0.109
ACCGGTAA	-0.0905
AATATGAC	0.101
CCTATTAA	-0.00224
ACCGTTAG	-0.0588
AGCCAATG	-0.126
CTCTCAGA	-0.108
ACTCGTGG	0.0496
CAGATAAC	0.163
GTGCCGTA	0.0122
GGTACGCA	0.0977
GTGCGTCA	0.0271
CAACTAGC	0.234
CTTTTAAC	-0.0503
CGGACAGA	0.132
CTTATGTA	0.175
ATCCAGCC	-0.0611

Four entries from above in a different format.
AAACAACC
  PBM E-score: -0.0909
AAAGAGTT
  PBM E-score: -0.181
CCTATTAA
  PBM E-score: -0.00224
CTTATGTA
  PBM E-score: 0.175
